# According to PubChem BioAssay AID493014 (National Center for Advancing Translational Sciences (NCATS), 2011):
# Some of the results follow. These are further read-outs of the screen, such as a control signal, another cell line or another target. No call is given for them. Compounds called inactive in the main read-out are mostly missing here. Words in brackets tell the shape of the fitted curve; partial curves, single points and poor fits give uncertain potencies.
# Assay: qHTS Assay to Find Inhibitors of Chronic Active B-Cell Receptor Signaling
# Settings: ABC-DLBCL IkBa-CBG/CBR reporter, luminescence ratio (green luciferase fused to IkBa over red control in TMD8 lymphoma cells), 4 h
# Outline: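 Doxycycline induced both beetle luciferases in TMD8 lymphoma cells; IKK-driven degradation limits the IkappaBalpha-fused green signal, while red luminescence normalises for cell number and nonspecific effects. Compounds tested up to 46 uM, 4 hrs.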
# [1] = measured here: CBR red luminescence, cell number
# [2] = measured here: IkBa-CBG green luminescence
SMILES,AC50 [1],AC50 [2]
CCOC(=O)Cn1cc([N+](=O)[O-])nc1[N+](=O)[O-],"35.5 µM [falling, single point]",
Cc1cc(NC(=O)CCl)no1,"0.891 µM [falling, full curve, poor fit]",
Nc1ccc(C2(c3ccc(N)cc3)c3ccccc3-c3ccccc32)cc1,"29.1 µM [falling, single point]",
O=C(O)c1ccc(/C=C/c2nc3ccccc3c(=O)n2-c2ccc(Br)cc2)cc1,"11.2 µM [falling, partial curve, poor fit]",
O=C(O)Cc1sc(Nc2ccc(Cl)cc2)nc1-c1cccs1,"10 µM [falling, partial curve, poor fit]",
CCCOC(=O)c1c(N)n(Cc2cccs2)c2nc3ccccc3nc12,"0.58 µM [falling, full curve, poor fit]",
CCc1c(C)nc(N)nc1N1N=C1SCC(N)=O,"1.3 µM [falling, full curve, poor fit]",
COc1cccc(/C=N\NC(=O)c2ccc(C)nc2)c1,"14.1 µM [falling, single point]",
CCNC(=O)COC(=O)/C=C/c1c(C)nn(Cc2cccc(OC)c2)c1Cl,"35.5 µM [falling, single point]",
O=C(O)Cn1cc(C=C2C(=O)NC(=O)NC2=O)c2ccccc21,"6.31 µM [rising, single point]",
CC(Cc1ccccc1)[n+]1cc(/N=C(\[O-])Nc2ccccc2)on1 (stereo not given),"0.731 µM [rising, full curve, poor fit]",
C[C@]12CC[C@H](O)CC1=C([N+](=O)[O-])CC1C2CC[C@@]2(C)C1CC[C@@H]2O (stereo not given in full),"2.91 µM [rising, full curve]",
CCCOc1ccccc1NP(=O)(Oc1ccccc1)Oc1ccccc1,"3.55 µM [rising, partial curve, poor fit]",
CCOC(=O)C1=C(N)Oc2c(c(=O)oc3ccccc23)C12C(=O)N(C)c1ccccc12 (stereo not given),"2.82 µM [falling, full curve, poor fit]",
CN(c1cccc(NC(=O)c2ccc(N(C)S(=O)(=O)c3ccccc3)cc2)c1)S(C)(=O)=O,"14.1 µM [falling, partial curve, poor fit]",
Cc1cc(OC(=O)c2ccco2)c2c3c(c(=O)oc2c1)CCCC3,"3.66 µM [rising, full curve]",
CN1C(=O)C(=Cc2ccccc2OCc2ccccc2Cl)C(=O)N(C)C1=O,"25.9 µM [rising, single point]",
COC(=O)C1=C(c2c(C)noc2C)C[C@@H]2CC[C@H]1N2C(=O)NCc1ccc(F)cc1,"25.9 µM [falling, partial curve, poor fit]",
NC(=O)c1ccc(N=Cc2c(O)n(Cc3ccco3)c(=O)[nH]c2=O)cc1,"35.5 µM [rising, single point]",
O=C(NC1CCCCC1)Oc1cc2oc(=O)sc2cc1Cl,"12.6 µM [rising, partial curve]","35.5 µM [falling, partial curve, poor fit]"
COc1ccccc1N(CC(=O)NC1CCCCC1)C(=O)CNC(=O)c1cccs1,"17.8 µM [falling, single point]",

# Another view of some results above:
SMILES	AC50 [1]	AC50 [2]
CC(Cc1ccccc1)[n+]1cc(/N=C(\[O-])Nc2ccccc2)on1 (stereo not given)	0.731 µM [rising, full curve, poor fit]	
CN(c1cccc(NC(=O)c2ccc(N(C)S(=O)(=O)c3ccccc3)cc2)c1)S(C)(=O)=O	14.1 µM [falling, partial curve, poor fit]	
COc1ccccc1N(CC(=O)NC1CCCCC1)C(=O)CNC(=O)c1cccs1	17.8 µM [falling, single point]	

# Following part

SMILES,AC50 [1],AC50 [2]
CCCCCn1cnc2sc(-c3ccccc3)cc2c1=O,"2.82 µM [rising, partial curve]",
COC(=O)C1=C(c2ccc(OC)c(OC)c2)C[C@@H]2CC[C@H]1N2C(=O)NCc1cccc2ccccc12,"23.1 µM [falling, partial curve, poor fit]","23.1 µM [rising, partial curve, poor fit]"
O=[N+]([O-])c1cccc2c([As](=O)(O)O)cccc12,"10 µM [falling, partial curve, poor fit]",
O=C(Cn1cc(C(=O)c2ccccc2F)c2ccccc21)NC1CC1,"15.8 µM [rising, single point]",
Cc1c(C(=O)O)cc(-c2ccccc2)n1Cc1ccccc1,,"12.6 µM [rising, partial curve, poor fit]"
Cc1ccc2nc3c(cc2c1)CC1(C(=O)N(C)C(=O)N(C)C1=O)C1CCCCN31 (stereo not given),"6.51 µM [falling, single point]",
COC(=O)C(O)(c1ccc2c(c1)CCCN2)C(F)(F)F (stereo not given),"15.8 µM [rising, single point]",
c1ccc2c(c1)Sc1ccccc1N2CC1CN2CCC1CC2 (stereo not given),"17.8 µM [falling, single point]",
Cc1ccc(OP(=O)(Nc2cccc(C)c2)Oc2ccc(C)cc2)cc1,"22.4 µM [falling, single point]",
C[C@]12CC[C@H]3[C@@H](CC[C@]4(O)C[C@@H](O)CC[C@]34C=O)[C@@]1(O)CC[C@@H]2C1=CC(=O)OC1,"3.66 µM [falling, partial curve]","29.1 µM [rising, partial curve, poor fit]"
Nc1c(C(=O)NCc2ccco2)c2nc3ccccc3nc2n1CCN1CCOCC1,"18.4 µM [falling, partial curve, poor fit]",
CC1=C/C(=C(/c2cc(C)c(O)c(Br)c2)c2ccccc2S(=O)(=O)O)C=C(Br)C1=O,"7.94 µM [falling, partial curve, poor fit]",
NC(N)=NC(=O)c1nc(Cl)c(N)nc1N,"12.6 µM [falling, single point]",
C[C@H]1C[C@@H](C)C(=O)[C@@H]([C@H](O)CC2CC(=O)NC(=O)C2)C1,"0.251 µM [falling, full curve]",
O=[N+]([O-])c1ccccc1-c1cc(-c2ccccc2)cc(-c2ccccc2)[n+]1Cc1ccccc1Cl,"20.6 µM [falling, single point]",
O=[N+]([O-])c1ccc(N2CCNCC2)c2ncccc12,"14.6 µM [rising, single point]",
COC(=O)C1=C(c2ccc(F)cc2OCc2ccccc2)C[C@@H]2CC[C@H]1N2C(=O)NCc1ccc(Cl)cc1,"14.6 µM [falling, partial curve]",
Oc1ccc(-[n+]2c(-c3ccccc3)cc(-c3ccccc3)cc2-c2ccccc2)cc1,"23.1 µM [falling, single point]",
Nc1ccc(S(=O)(=O)N2CCCCC2c2cccnc2)cc1 (stereo not given),"2.91 µM [falling, partial curve, poor fit]",
O=C(Nc1ccc2c(c1)OCCO2)c1cccn(Cc2cccc(F)c2)c1=O,"10 µM [falling, partial curve, poor fit]",
Cc1nc(-c2noc(-c3ccc(Cl)cc3)n2)c(C(F)(F)F)o1,"10 µM [rising, partial curve, poor fit]",

SMILES,AC50 [1],AC50 [2]
O=C(c1cccn2c(=O)c3cc(Br)ccc3nc12)N1CCC2(CC1)OCCO2,"23.1 µM [falling, single point]",
COC(=O)C1=C(c2ccc(-c3ccccc3)c(F)c2)C[C@@H]2CC[C@H]1N2C(=O)NCc1ccc(F)cc1,"18.4 µM [falling, partial curve, poor fit]",
CCOc1cc(/C=C2\CN(CC)C/C(=C\c3ccc(O)c(OCC)c3)C2=O)ccc1O,"10 µM [falling, partial curve, poor fit]",
C/C(=N\N1CCCCCC1)c1c(O)n(C)c(=O)n(C)c1=O,"6.31 µM [rising, single point]",
Cn1c(O)c(C(=Nc2ccc(F)cc2)c2ccccc2)c(=O)n(C)c1=O,"2.24 µM [falling, partial curve, poor fit]",
O=P(Nc1cccc(Cl)c1)(Oc1ccccc1)Oc1ccccc1,"22.4 µM [falling, single point]",
Nc1ccccc1C(=O)OCC(=O)N1CCc2ccccc21,"29.1 µM [falling, single point]",
O=C1/C(=C/c2ccncc2)N2CCC1CC2,"25.1 µM [falling, single point]",
CCOC(=O)N1CCN(C(=O)c2ccc3c(c2)N(C)C(=O)/C(=C\c2ccc(OCC)c(OC)c2)S3)CC1,"35.5 µM [falling, single point]",
O=C(O)C1C2CCC(O2)C1C(=O)NC1CCCCC1 (stereo not given),"20.6 µM [rising, partial curve, poor fit]",
COc1ccc(-c2csc(N)n2)cc1F,"11.2 µM [rising, partial curve, poor fit]",
O=C(/C=C\c1ccco1)NC(=S)Nc1ccccc1O,"10 µM [falling, partial curve, poor fit]",
Cc1ccc(C)c(/C=N/Nc2ccccn2)c1,"6.31 µM [rising, single point]",
c1ccc2sc(C3CCCNC3)nc2c1 (stereo not given),,"3.66 µM [rising, partial curve, poor fit]"
COc1cccc(-c2nc3ccc(N4CCN(C)CC4)cc3[nH]2)c1,"5.01 µM [falling, partial curve, poor fit]","2.24 µM [rising, partial curve, poor fit]"
CCc1ccc(-c2cc(C)no2)cc1S(=O)(=O)N1CCOc2ccc(C)cc21,"12.6 µM [falling, partial curve]",
NC(=O)Nc1ccc(C(=O)OCC(=O)Nc2ccc(Cl)cc2C(=O)c2ccccc2)cc1,"29.1 µM [falling, single point]",
O=C(Cn1c(=O)oc2ccccc21)Nc1ccc(Cl)cc1,"3.16 µM [falling, partial curve, poor fit]",
COc1ccc(C2C(C#N)=C(N)Oc3c2c(=O)oc2ccccc32)cc1Cn1cc([N+](=O)[O-])cn1 (stereo not given),"3.55 µM [falling, partial curve, poor fit]",

# Among those listed so far, 2 have two or more sulfur atoms:
SMILES,AC50 [1],AC50 [2]
O=C(O)Cc1sc(Nc2ccc(Cl)cc2)nc1-c1cccs1,"10 µM [falling, partial curve, poor fit]",
CN(c1cccc(NC(=O)c2ccc(N(C)S(=O)(=O)c3ccccc3)cc2)c1)S(C)(=O)=O,"14.1 µM [falling, partial curve, poor fit]",
